The results are deposited in PubChem (AID912; NCATS, 2007).

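Uptake of anthrax lethal toxin into cultured cells, read by FRET (460/530 nm ratio) and reported from the 460 nm channel; the cell line is not named here.
Each compound was tested as a concentration series from about 0.0005 to 40 µM.
The number is the fitted AC50 of the 460 nm signal alone; lower values mean a more potent effect. A falling signal goes with compounds filed as inhibitors or cytotoxic, a rising one with activators or fluorescent compounds (inferred from the filed classes).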

Values are in µM.
Common to all entries: measured here: 460 nm channel.
This is a side read-out of the assay, for part of the compounds, not drawn at random.
A potency from a partial, single-point or poor curve is only a rough figure.
The first word of each remark tells which way the curve ran; it can be opposite to the aim of the assay.

compound	AC50 (µM)	remark
O=C(NCc1ccc2c(c1)OCO2)C1CC(=O)N(C2CCCCCC2)C1 (centres unmarked)	1.259	falling, partial curve
CCCCn1c(=O)n(CC(O)c2ccccc2)c(=O)c2c1ncn2C1CCCC1 (centres unmarked)	6.31	rising, partial curve
Cc1cc(C(=O)CN2C(=O)NC3(CCCc4ccccc43)C2=O)c(C)n1Cc1cccs1 (centres unmarked)	31.62	falling, single point
Cc1nnc(NC(=O)CCC(=O)N2CCN(CCc3ccccc3)CC2)s1	0.003981	falling, full curve, poor fit
CC(=O)N1CCC(C(=O)Nc2nc(-c3ccccc3)ns2)CC1	10	rising, partial curve
COc1ccc(-c2cc(C(=O)Nc3ccccc3SC)no2)cc1OC	5.012	falling, single point
Cc1ccc(C)c(-n2nnnc2SCC(=O)Nc2cccc(-c3nnc4n3CCCCC4)c2)c1	25.12	rising, single point
Cc1cc(C)cc(OP(=O)(Oc2cc(C)cc(C)c2)Oc2cc(C)cc(C)c2)c1	3.981	falling, full curve
O=C(NCCN1CCN(c2cccc(Cl)c2)CC1)c1cccn2c(=O)c3ccccc3nc12	5.012	rising, single point
Cc1c(C(=O)N(Cc2cccs2)C2CCS(=O)(=O)C2)oc2ccccc12 (centres unmarked)	7.943	rising, partial curve, poor fit
CC(C)OCCCn1c(=NC(=O)c2ccncc2)c(C#N)cc2c(=O)n3ccccc3nc21	15.85	rising, partial curve
O=C(CSCc1ccccc1)N1CCN(C(=O)c2ccco2)CC1	7.943	rising, partial curve
COc1cccc(OCC(=O)N(Cc2nc(-c3ccc(Cl)cc3)no2)C(C)C)c1	12.59	falling, partial curve
CNCCCC12CCC(c3ccccc31)c1ccccc12	12.59	falling, partial curve, poor fit
c1ccc(Cn2ccnc2SCc2nnc(-c3ccccc3)o2)cc1	15.85	rising, single point
C=CCN(C(=O)CSc1nc2[nH]ncc2c(=O)n1-c1ccccc1OC)c1ccccc1	0.631	rising, full curve, poor fit
O=C(CSc1ncc(-c2ccc(F)cc2)n1Cc1ccco1)Nc1ccc2c(c1)OCO2	3.162	falling, partial curve
CN(C)c1ncc2nc(CCc3ccccc3)c(=O)n(C[C@H]3CCCO3)c2n1	25.12	rising, single point
CCCCC(=O)NCCc1c(Cc2ccccc2)[nH]c2ccccc12	0.007943	falling, full curve, poor fit
COc1cccc(-c2cncnc2NCCc2c[nH]c3ccc(OC)cc23)c1	31.62	falling, single point
CC1CCN(c2oc(Cc3cccc4ccccc34)nc2C#N)CC1	5.012	rising, single point
COc1ccc(-c2nc3cnc(N4CCNCC4)nc3n(-c3ccc(OC)cc3)c2=O)cc1	1.995	rising, full curve
Cc1c(C(=O)N2CCCC2)nnn1-c1nonc1N	0.3162	falling, partial curve, poor fit
COc1ccc(NC(=O)Nc2ccc3c(c2)N(C)C(=O)CS3)cc1OC	15.85	falling, single point
COc1ccc(C2C(C#N)=C(N)Oc3cc(O)ccc32)cc1OC (centres unmarked)	12.59	rising, partial curve
CC(C)c1ccc(-c2nnn(CCC(=O)O)n2)cc1	0.1259	falling, full curve, poor fit
CCN1CCN(C(=O)c2cn(CCOC)c(=O)c3c2c2ccccc2n3C)CC1	3.981	rising, single point
O=C1[C@@H]2[C@H]3[C@H](O)[C@H](O)C/C(=N/OCc4ccccc4)[C@@H]3CC[C@H]2C(=O)N1c1ccc(F)cc1F	0.02512	rising, partial curve
CCOC(=O)Cn1c(=O)c2c(nc3n2CCN3Cc2ccccc2)n(C)c1=O	1.585	rising, full curve
Cc1nc(SCCCSc2n[nH]c(C)n2)n[nH]1	0.01995	falling, full curve, poor fit
O=C(c1cnccn1)N1CCC[C@@]2(CCN(c3ccccn3)C2)C1	12.59	falling, single point
CCOC(=O)c1ccc(Nc2ccc(-c3ccc(OC)c(OC)c3)nn2)cc1	10	rising, partial curve
CC(C)(C)OC(=O)N1CCC(c2c(C(=O)O)cnn2-c2ccc(Cl)cc2)CC1	6.31	rising, partial curve, poor fit
CS(=O)(=O)N1CCN(c2ccccc2NC(=O)c2cccs2)CC1	10	rising, partial curve
COCC(=O)N1CCC2(CC1)CN(C(c1ccccc1)c1ccccc1)C2	7.943	rising, partial curve
CC(C)n1c(=N)c(C(=O)NCCc2ccccc2)cc2c(=O)n3ccccc3nc21	5.012	rising, partial curve
CCN(CC)CCN=C1CCCc2ccccc2N1	31.62	falling, single point
Nc1cc(=O)[nH]c(SCc2nc3ccccc3n2Cc2ccccc2)n1	12.59	rising, single point
N#Cc1c(NC(=O)CN2CCOCC2)oc(-c2ccccc2)c1-c1ccccc1	12.59	falling, partial curve
NCCNCCNCCNCCN	31.62	falling, single point
Cc1ccccc1-c1cncnc1NCCN1CCOCC1	12.59	falling, single point
O=C1C2=CC[C@H]3C(=O)N(c4cccc(Oc5ccccc5)c4)C(=O)[C@@H]3[C@@H]2[C@H](O)[C@@H]2O[C@H]12	3.981	falling, single point
CCNc1ncc2nc(-c3cccs3)c(=O)n(-c3ccc(OC)cc3)c2n1	0.7943	rising, full curve
O=C(NCc1ccc2c(c1)OCO2)C1CCC(CNc2c(N3CCCCC3)c(=O)c2=O)CC1 (centres unmarked)	10	rising, single point
COCCn1c(=O)c(-c2ccccc2)nc2cnc(Nc3cccc(OC)c3)nc21	12.59	rising, partial curve
CCC(=O)N1CCN(c2ccc(NC(=O)c3ccco3)cc2)CC1	5.012	falling, partial curve
CCN1CCCC1CNC(=O)CCc1nc(-c2ccc(C)cc2)no1 (centres unmarked)	10	falling, partial curve
Cc1ccccc1C(=O)N1CCN(c2ccc(NC(=O)c3ccco3)cc2Cl)CC1	1.585	falling, full curve
CC#C[C@@]1(O)CC[C@@H]2[C@@H]3CCC4=CC(=O)CCC4=C3[C@@H](c3ccc(N(C)C)cc3)C[C@]21C	0.7943	rising, full curve
Cc1cnc(CNc2ncnc3ccc(-c4cccc(C#N)c4)cc23)cn1	0.3981	falling, partial curve
COc1ccccc1N1CCN(C(CNS(=O)(=O)c2ccc(C)cc2)c2cccnc2)CC1 (centres unmarked)	7.943	rising, partial curve
COc1ccccc1N1C(=O)N(C(C)=O)C2C1Nc1ccccc1N2C (centres unmarked)	3.981	rising, partial curve, poor fit
Cc1cc(C)n(C(=O)CCNC(=O)c2ccccc2Br)n1	0.00631	falling, full curve
COc1cc(CNC2CCC(C)C2)cc(OC)c1 (centres unmarked)	12.59	falling, partial curve
CCCn1c(CNc2ccc(Br)cc2)nc2ccccc21	12.59	falling, single point

The first 5 entries again:

| compound | AC50 (µM) | remark |
|---|---|---|
| `O=C(NCc1ccc2c(c1)OCO2)C1CC(=O)N(C2CCCCCC2)C1` (centres unmarked) | 1.259 | falling, partial curve |
| `CCCCn1c(=O)n(CC(O)c2ccccc2)c(=O)c2c1ncn2C1CCCC1` (centres unmarked) | 6.31 | rising, partial curve |
| `Cc1cc(C(=O)CN2C(=O)NC3(CCCc4ccccc43)C2=O)c(C)n1Cc1cccs1` (centres unmarked) | 31.62 | falling, single point |
| `Cc1nnc(NC(=O)CCC(=O)N2CCN(CCc3ccccc3)CC2)s1` | 0.003981 | falling, full curve, poor fit |
| `CC(=O)N1CCC(C(=O)Nc2nc(-c3ccccc3)ns2)CC1` | 10 | rising, partial curve |